{
  "source": "PubChem BioAssay AID504834",
  "about": "(National Center for Advancing Translational Sciences (NCATS), 2011)",
  "note": "Screen size: about 320,000 compounds; about 22,000 (6.9%) were called active. Inconclusive means that the source gave no clear call. Such entries were picked first, then a sample of the others. Calls follow the shape of the dose curve; as a rule, active = well fitted inhibition curve with a large enough effect; inconclusive = small, poorly fitted or top-dose-only effect, or another doubt; inactive = no such curve, though single readings can be large or run the other way. Potencies beside an inconclusive call are fits to weak or partial responses and may not hold up. % is scaled to controls: 0 for no effect and ±100 for the full control effect; potency is read from the fitted curve at half-maximal effect.",
  "data": [
    {"assay": "Primary qHTS for delayed death inhibitors of the malarial parasite plastid, 96 hour incubation", "details": "P. falciparum luciferase reporter growth; series mostly up to 28.7 µM; activity change, negative = inhibition: at the top concentration", "how_it_was_run": "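Two parasite generations (96 h, 37 C, 5% CO2) of compound exposure in infected erythrocytes (0.05% parasitemia, 2% hematocrit). Luciferase-reporter P. falciparum; decreased luminescence indicates inhibited growth, aimed at apicoplast-acting delayed death.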", "values": [
      {"smiles": "Cc1ccc(C)c2[nH]c(=O)c(C(c3nnnn3C(C)(C)C)N3CC=C(c4ccc(F)cc4)CC3)cc12", "note": "(stereo not drawn)", "Potency": "inconclusive: 10.4 µM [inhibitor, single point]"},
      {"smiles": "OC1(c2ccc(F)cc2)CN(c2ccccc2)C2=[N+]1CCS2", "note": "(stereo not drawn)", "Potency": "inconclusive: 11.7 µM [inhibitor, single point]"},
      {"smiles": "NC(=O)N/N=C/c1ccc([N+](=O)[O-])o1", "Potency": "active: 5.36 µM"},
      {"smiles": "Cc1nc2nc(C)c(NS(=O)(=O)c3ccc(Cl)cc3)c(=O)n2[nH]1", "activity change, negative = inhibition": "inactive: 17.8%"},
      {"smiles": "COc1cccc(-c2csc(NNC(=O)c3cccs3)n2)c1", "Potency": "inconclusive: 18.5 µM [inhibitor, single point]"},
      {"smiles": "CN(C)S(=O)(=O)c1cc(C(=O)NCc2ccccc2)c(Cl)cc1Cl", "activity change, negative = inhibition": "inactive: 46.9% [at 1.15 µM]"},
      {"smiles": "Cc1cc(=O)[nH]c2ccc(S(=O)(=O)Nc3ccccc3)cc12", "Potency": "inconclusive: 18.5 µM [inhibitor, single point]"},
      {"smiles": "CCC(C)C(Nc1ncnc2scc(-c3ccccc3)c12)C(=O)O", "note": "(stereo not drawn)", "activity change, negative = inhibition": "inactive: 0%"},
      {"smiles": "C=C1c2c(Cl)ccc(O)c2C(O)=C2C(=O)[C@]3(O)C(O)=C(C(N)=O)C(=O)[C@@H](N(C)C)[C@@H]3[C@@H](O)C12", "note": "(stereo partly drawn)", "Potency": "active: 0.738 µM"},
      {"smiles": "CC(C)c1ccccc1OCC(=O)NC1CCCc2ccccc21", "note": "(stereo not drawn)", "Potency": "inconclusive: 4.15 µM [inhibitor, partial curve, poor fit]"},
      {"smiles": "Cc1ccnc(N2CCC(C(=O)NNC(=O)COc3cccc4ccccc34)CC2)n1", "Potency": "inconclusive: 3.29 µM [inhibitor, full curve]"},
      {"smiles": "Cc1ccc(S(=O)(=O)NCC(=O)N2CCCC2)cc1", "Potency": "inconclusive: 11.7 µM [inhibitor, single point]"},
      {"smiles": "O=C(c1ccc(N2CCN(C(=O)c3ccccc3Br)CC2)cc1)c1cccc(F)c1", "Potency": "active: 9.28 µM"},
      {"smiles": "CCc1ccc(C(=O)NNC(=O)CC2OC(=O)c3ccccc32)cc1", "note": "(stereo not drawn)", "Potency": "inconclusive: 18.5 µM [inhibitor, single point]"},
      {"smiles": "CN1CCN(S(=O)(=O)c2ccc(NC(=O)c3cccc(S(=O)(=O)N4CCCC4)c3)cc2)CC1", "Potency": "inconclusive: 0.0828 µM [inhibitor, full curve, poor fit]"},
      {"smiles": "Cc1cc(NC(=O)c2cccc(S(=O)(=O)N3c4ccccc4CC3C)c2)no1", "note": "(stereo not drawn)", "Potency": "active: 5.22 µM"},
      {"smiles": "O=C(Nn1c(-c2ccc(Br)cc2)nc2ccccc2c1=O)c1ccc([N+](=O)[O-])cc1", "Potency": "inconclusive: 10.4 µM [inhibitor, single point]"},
      {"smiles": "O=C(C1CCCN(S(=O)(=O)c2cccc3nsnc23)C1)N1CCN(c2ccccn2)CC1", "note": "(stereo not drawn)", "activity change, negative = inhibition": "inactive: 67.4%"},
      {"smiles": "CCn1c(C(=O)NCCCN2CCc3ccccc3C2)cc2sccc21", "Potency": "inconclusive: 5.22 µM [inhibitor, partial curve, poor fit]"},
      {"smiles": "O=C(c1ccc2c(c1)OCO2)C1CCCN(Cc2cccc(C(F)(F)F)c2)C1", "note": "(stereo not drawn)", "Potency": "inconclusive: 18.5 µM [inhibitor, single point]"},
      {"smiles": "CC1C(=O)NN=C1C(=O)N/N=C/c1ccco1", "note": "(stereo not drawn)", "Potency": "inconclusive: 18.5 µM [inhibitor, single point]"},
      {"smiles": "Cc1ccc(CNC(=O)C2CCCN(S(=O)(=O)c3cccnc3)C2)cc1", "note": "(stereo not drawn)", "Potency": "inconclusive: 11.7 µM [inhibitor, partial curve, poor fit]"},
      {"smiles": "O=C(Nc1ccc(/C=C/c2nc3ccccc3o2)cc1)c1ccc(F)cc1", "Potency": "inconclusive: 14.7 µM [inhibitor, partial curve, poor fit]"},
      {"smiles": "O=C(O)c1cc(S(=O)(=O)Nc2cccc3ccccc23)c(Cl)cc1Cl", "activity change, negative = inhibition": "inactive: 33.3%"},
      {"smiles": "Cc1ccc(CNC(=O)CCSCc2ccc(C)cc2)cc1", "Potency": "inconclusive: 13.1 µM [inhibitor, single point]"},
      {"smiles": "Cc1nc(C(C)N(C)Cc2nc(-c3ccc4c(c3)OCO4)no2)c(C)s1", "note": "(stereo not drawn)", "activity change, negative = inhibition": "inactive: 1.15%"},
      {"smiles": "O=C(Nc1cccc(-c2csc(Nc3ccc(Cl)cc3)n2)c1)c1ccccc1", "Potency": "inconclusive: 18.5 µM [inhibitor, single point]"},
      {"smiles": "CCOC(=O)C1CCCN(CC(=O)Nc2c(C(=O)OC)[nH]c3ccc(Br)cc23)C1", "note": "(stereo not drawn)", "Potency": "inconclusive: 9.28 µM [inhibitor, single point]"},
      {"smiles": "CCOC(=O)/C=C(/C)N1N=C(c2ccc(OC)cc2)CC1c1cccc([N+](=O)[O-])c1", "note": "(stereo not drawn)", "Potency": "inconclusive: 18.5 µM [inhibitor, single point]"},
      {"smiles": "N#Cc1nc(/C=C/c2ccccc2)oc1NCCCN1CCOCC1", "activity change, negative = inhibition": "inactive: 18.9%"},
      {"smiles": "COc1ccccc1C(=O)NNC(=O)c1cccc(Br)c1", "activity change, negative = inhibition": "inactive: -12.9%"},
      {"smiles": "O=C(NC1CCCCC1)N1CCN(c2nc(-c3ccccc3)cs2)CC1", "Potency": "inconclusive: 16.5 µM [inhibitor, partial curve, poor fit]"},
      {"smiles": "Cc1ccc(-c2cc(C(=O)N3CCN(c4ccc(F)cc4)CC3)c3ccccc3n2)o1", "Potency": "inconclusive: 18.5 µM [inhibitor, single point]"},
      {"smiles": "CCC(=O)Nc1cc2nn(-c3ccccc3)nc2cc1Cl", "activity change, negative = inhibition": "inactive: -3.26%"},
      {"smiles": "Cn1nnnc1SCCNC(=O)C1CCC(=O)N(Cc2ccc(Cl)cc2)C1", "note": "(stereo not drawn)", "Potency": "inconclusive: 5.22 µM [inhibitor, partial curve, poor fit]"},
      {"smiles": "COc1ccc(/C=N/NC(N)=S)cc1OC(=O)c1cccc2ccccc12", "Potency": "inconclusive: 18.5 µM [inhibitor, single point]"},
      {"smiles": "Cc1cc(Cl)ccc1NC(=S)NC(C)(C)C", "Potency": "inconclusive: 10.4 µM [inhibitor, single point]"},
      {"smiles": "COc1cccc(C2(O)CC(C(F)(F)F)=NN2C(=O)c2ccccn2)c1", "note": "(stereo not drawn)", "Potency": "active: 0.522 µM"},
      {"smiles": "CCN(CC(=O)Nc1c(F)cccc1F)C(=O)CNC(=O)c1ccco1", "activity change, negative = inhibition": "inactive: 16.2%"},
      {"smiles": "COc1ccc(S(=O)(=O)N2CCCCCC2)cc1C(=O)N(C)CC(=O)Nc1cc(C)ccc1C", "Potency": "inconclusive: 6.57 µM [inhibitor, partial curve, poor fit]"},
      {"smiles": "O=C1O/C(=C\\c2ccccc2)c2ccccc21", "Potency": "inconclusive: 4.65 µM [inhibitor, partial curve, poor fit]"},
      {"smiles": "O=C(C1CC(=O)N(C2CCCC2)C1)N1CCN(c2ccccc2)CC1", "note": "(stereo not drawn)", "Potency": "inconclusive: 1.47 µM [inhibitor, full curve]"},
      {"smiles": "Cc1sc2nc(CN3CCCC3)nc(N3CCN(S(=O)(=O)c4cccc(F)c4)CC3)c2c1C", "Potency": "active: 9.28 µM"}
    ]}
  ]
}
